Results reported in patent US20100158865A1.
No constants are given. Whether binding was seen depends on the method and setting. Some entries that bind do so weakly or less than the wild type.

Chains of the proteins cited; added tags and fusions are not shown. Residues count along the entry.
UniProt P01579, residues 24-161: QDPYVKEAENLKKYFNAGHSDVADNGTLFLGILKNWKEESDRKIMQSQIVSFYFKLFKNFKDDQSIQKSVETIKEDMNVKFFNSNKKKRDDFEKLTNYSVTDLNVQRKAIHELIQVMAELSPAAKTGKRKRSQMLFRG

What was measured:
hIFN-γ receptor (human) [1] = biological target: T1, hIFN-γ receptor (human) (UniProt P15260); experiment: biological tests, competition with hIFN-γ
T1 sequence (looked up): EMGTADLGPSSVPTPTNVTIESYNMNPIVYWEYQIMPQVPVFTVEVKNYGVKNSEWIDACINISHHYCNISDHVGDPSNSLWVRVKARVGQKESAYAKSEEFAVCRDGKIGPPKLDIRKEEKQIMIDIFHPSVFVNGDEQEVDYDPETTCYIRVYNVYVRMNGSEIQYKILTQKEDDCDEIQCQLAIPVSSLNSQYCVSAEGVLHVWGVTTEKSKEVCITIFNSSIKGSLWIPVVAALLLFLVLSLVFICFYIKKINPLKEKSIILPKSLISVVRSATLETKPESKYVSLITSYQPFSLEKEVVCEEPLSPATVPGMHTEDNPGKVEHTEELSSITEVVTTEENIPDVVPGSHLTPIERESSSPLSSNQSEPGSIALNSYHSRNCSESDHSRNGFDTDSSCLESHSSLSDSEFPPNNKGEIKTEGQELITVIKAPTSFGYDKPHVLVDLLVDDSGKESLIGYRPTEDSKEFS

hIFN-γ receptor (human) [2] = biological target: T1, hIFN-γ receptor (human); experiment: competition with intact hIFN-γ on WISH cells, antiviral read-out

Substance | binding (hIFN-γ receptor (human) [1]) | binding (hIFN-γ receptor (human) [2])
hIFN-γ inactivated by irradiation with UV light (photoinactivated hIFN-γ) (from UniProt P01579 24-161) (ligand) | binds | binds
truncated human hIFN-γ protein composed of 116 aminoacid residues (from UniProt P01579 24-139) (ligand) | binds | binds
